US20200223894A1 (AUCKLAND UNISERVICES LIMITED, priority 2017, published 2020)
Plain letter strings leave the end groups untold.

Experiment: general procedure: Fmoc solid-phase peptide synthesis; HBTU/DIPEA
Details: whole synthesis, HCl (TFA removed by lyophilisation from 10 mM hydrochloric acid); for final HPLC purity: analytical HPLC at 214 nm (Dionex Ultimate 3000, Zorbax Eclipse XDB-C8)

Row | Sequence | isolated yield [%] | final HPLC purity (run 1) [%] | final HPLC purity (run 2) [%] | final HPLC purity [%]
1 | YGRKKKRRQQRRRGTCY | 16.2 | > 95 | >95 | –
2 | YGRKKKRRQQRRRDTGGTCY | 14.0 | – | – | > 95
3 | YGRKKRRQQRRRKGTCAGWMA | 18.3 | > 95 | >95 | –
4 | KGTCAGWMA | 24.0 | – | – | > 95
